PubChem BioAssay AID1224826 | NIAID | 2016
In all, the deposit lists about 17,000 reagents; below is an unselected part. About 1,110 of them (6.6%) were called active. 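Active means lowered or raised reporter signal; replicate intensities are raw and not normalised per plate.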 Reagents against one gene are numbered here. Not all columns of the deposit are shown. No sequences are given here.

- Screen: 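Regulators of Tlr4 signalling leading to Tnf-alpha expression in macrophages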 (primary screen)
- Cells: RAW264.7 G9 macrophages from mouse bearing reporters for p65 (GFP) and the Tnf promoter (mCherry)
- Reagent: siRNA pool against mouse genes, 100 nM
- Duration: 16 h of LPS stimulation, after 2 days of siRNA transfection
- Conditions: bacterial lipopolysaccharide (Salmonella minnesota R595), 10 ng/ml
- Measured: 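Nuclear mCherry signal of the Tnf promoter reporter measured by imaging after background removal, scaled to each plate median and turned into robust z-scores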
- Reading the numbers: Tnf reporter robust z-score: higher = stronger Tnf promoter reporter signal after LPS
- Rule for the call: 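a well counts as active at a score of -1.3 or below (Tlr4 knock-down control median) or above 3 (raised signal); controls and wells holding fewer than 50 cells are excluded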
- Calls: active = Tnf reporter clearly lowered or raised; inactive = no clear change in Tnf reporter

The first 3 records as a preview:
Srf: Tnf reporter robust z-score = 0; fewer than 50 cells in well = enough cells in well; call = inactive
A630012P03Rik: Tnf reporter robust z-score = 1.21; fewer than 50 cells in well = enough cells in well; call = inactive
Gnas: Tnf reporter robust z-score = -1.35; fewer than 50 cells in well = enough cells in well; call = active

Results, repeating the preview:
Srf: Tnf reporter robust z-score = 0; fewer than 50 cells in well = enough cells in well; call = inactive
A630012P03Rik: Tnf reporter robust z-score = 1.21; fewer than 50 cells in well = enough cells in well; call = inactive
Gnas: Tnf reporter robust z-score = -1.35; fewer than 50 cells in well = enough cells in well; call = active
BC043934: Tnf reporter robust z-score = 0.12; fewer than 50 cells in well = enough cells in well; call = inactive
Adrm1: Tnf reporter robust z-score = -1.41; fewer than 50 cells in well = enough cells in well; call = active
Suv39h2: Tnf reporter robust z-score = -0.72; fewer than 50 cells in well = enough cells in well; call = inactive
Ess2: Tnf reporter robust z-score = -0.1; fewer than 50 cells in well = enough cells in well; call = inactive
Or2ag13: Tnf reporter robust z-score = 2.47; fewer than 50 cells in well = enough cells in well; call = inactive
Pus1: Tnf reporter robust z-score = 0.31; fewer than 50 cells in well = enough cells in well; call = inactive
Aifm1: Tnf reporter robust z-score = 0.25; fewer than 50 cells in well = enough cells in well; call = inactive
Or4d5: Tnf reporter robust z-score = 0.49; fewer than 50 cells in well = enough cells in well; call = inactive
Bpnt1: Tnf reporter robust z-score = -0.57; fewer than 50 cells in well = enough cells in well; call = inactive
Prb1b #1: Tnf reporter robust z-score = 0.59; fewer than 50 cells in well = enough cells in well; call = inactive
Prb1b #2: Tnf reporter robust z-score = 0.88; fewer than 50 cells in well = enough cells in well; call = inactive
Or4g16: Tnf reporter robust z-score = 2.42; fewer than 50 cells in well = enough cells in well; call = inactive
Smco4: Tnf reporter robust z-score = 0.43; fewer than 50 cells in well = enough cells in well; call = inactive
Klhl31 #1: Tnf reporter robust z-score = -0.02; fewer than 50 cells in well = enough cells in well; call = inactive
Klhl31 #2: Tnf reporter robust z-score = -1.19; fewer than 50 cells in well = enough cells in well; call = inactive
Or4x15: Tnf reporter robust z-score = -0.59; fewer than 50 cells in well = enough cells in well; call = inactive
Sod1: Tnf reporter robust z-score = 0.4; fewer than 50 cells in well = enough cells in well; call = inactive
Enoph1: Tnf reporter robust z-score = 0.08; fewer than 50 cells in well = enough cells in well; call = inactive
Ppp1r2: Tnf reporter robust z-score = 0.89; fewer than 50 cells in well = enough cells in well; call = inactive
Taf7l: Tnf reporter robust z-score = 0.21; fewer than 50 cells in well = enough cells in well; call = inactive
Tmem37: Tnf reporter robust z-score = 0.26; fewer than 50 cells in well = enough cells in well; call = inactive
Themis: Tnf reporter robust z-score = -0.74; fewer than 50 cells in well = enough cells in well; call = inactive
Or4f7: Tnf reporter robust z-score = -1.45; fewer than 50 cells in well = enough cells in well; call = active
Ssna1: fewer than 50 cells in well = fewer than 50 cells per well; well left out of calls; call = inactive
